Reference: PubChem BioAssay AID720505 (Drosophila RNAi Screening Center, 2013)
Purpose: 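Genes needed for store-operated calcium entry in fly cells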 (primary screen). System: Drosophila S2R+ cells. Knock-down reagent: long dsRNA against Drosophila genes. Challenge: thapsigargin (2 µM) in calcium-free buffer to empty internal stores, then 2 mM calcium added back. Measured: 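Stores emptied by 2 µM thapsigargin without calcium, then 2 mM calcium re-added; fluo-4 fluorescence followed by FLIPR in 384-well plates, per-well averaged endpoint, raw; two screen passes, some wells retested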. Scale: calcium signal and retest calcium signal: higher = more calcium entry after store depletion. Rule for the call: 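About 1500 genes called as lowering calcium entry, by varying amounts, judged against per-plate control wells with STIM1 as positive and Rho1 as negative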. Meaning of the calls: active = called as lowering calcium entry; inactive = not called.
The screen tested about 20,000 reagents; shown is an unselected part of those with a known target gene and a result. Over the whole deposit, about 2,100 (10%) are marked active. 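Raw plate signals without normalisation; calls rest on control-based scores that were not deposited; replicate 2 separates called from uncalled poorly.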 Unmarked entries are inactive. The numbers tell different reagents against one gene apart. Reagent sequences are not shown. Not stated in the record: the amount of reagent, the time to read-out.

Target gene | dsRNA no. | calcium signal, replicate 1 | calcium signal, replicate 2 | retest calcium signal, replicate 1 | retest calcium signal, replicate 2
qkr54B | 1 | 175 | 149 | – | –
apn | 1 | 133 | 83 | – | –
CG13021 | 1 | 104 | 115 | – | –
CG10598 | 1 | 99.9 | 116 | – | –
CG4793 | 1 | 114 | 143 | – | –
CG11404 | 1 | 106 | 109 | – | –
CG5412 | 1 | 183 | 294 | – | –
CG8578 | 1 | 137 | 127 | – | –
CG11756 | 1 | 108 | 79.7 | – | –
knon | 1 | 186 | 127 | – | –
Cyp6a9 | 1 | 141 | 194 | – | –
ND-B12 | 1 | 212 | 83.6 | – | –
Idua | 1 | 99.3 | 114 | – | –
CG9010 | 1 | 149 | 97.3 | – | –
CG14777 | 1 | 98.7 | 113 | – | –
ana3 | 1 | 145 | 174 | – | –

The list goes on (3 carried over from the part before).
Target gene | dsRNA no. | calcium signal, replicate 1 | calcium signal, replicate 2 | retest calcium signal, replicate 1 | retest calcium signal, replicate 2
CG9010 | 1 | 149 | 97.3 | – | –
CG14777 | 1 | 98.7 | 113 | – | –
ana3 | 1 | 145 | 174 | – | –
CG31415 | 1 | 78 | 125 | – | –
Slc45-1 | 1 | 94 | 80 | – | –
mfrn | 1 | 86.7 | 102 | – | –
fz2 | 1 | 163 | 87.7 | 137 | 84.7
fz2 | 2 | 88.5 | 189 | – | –
Adgf-D | 1 | 147 | 215 | – | –
Mal-A3 | 1 | 154 | 179 | – | –
CG4734 | 1 | 114 | 188 | – | –
CG4734 | 2 | 106 | 276 | – | –
CG14185 | 1 | 105 | 80.3 | – | –
